Test results published in article PMC10852281.

Protein sequences, listed by entry. Tags and fused reporters are not part of them. Lines headed by an entry give the natural chain unless they say otherwise; changes in a name come on top.
UniProt Q9H3M7: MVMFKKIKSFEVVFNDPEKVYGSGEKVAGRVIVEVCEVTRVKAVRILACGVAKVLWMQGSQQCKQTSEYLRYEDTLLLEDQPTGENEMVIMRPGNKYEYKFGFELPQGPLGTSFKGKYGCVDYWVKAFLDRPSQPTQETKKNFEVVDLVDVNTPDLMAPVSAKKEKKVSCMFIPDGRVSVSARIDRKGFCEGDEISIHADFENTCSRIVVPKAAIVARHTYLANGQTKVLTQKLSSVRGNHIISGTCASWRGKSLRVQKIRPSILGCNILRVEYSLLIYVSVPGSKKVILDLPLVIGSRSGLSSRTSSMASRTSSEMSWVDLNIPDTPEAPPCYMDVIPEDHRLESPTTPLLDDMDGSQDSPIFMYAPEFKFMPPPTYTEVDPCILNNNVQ
UniProt P11166: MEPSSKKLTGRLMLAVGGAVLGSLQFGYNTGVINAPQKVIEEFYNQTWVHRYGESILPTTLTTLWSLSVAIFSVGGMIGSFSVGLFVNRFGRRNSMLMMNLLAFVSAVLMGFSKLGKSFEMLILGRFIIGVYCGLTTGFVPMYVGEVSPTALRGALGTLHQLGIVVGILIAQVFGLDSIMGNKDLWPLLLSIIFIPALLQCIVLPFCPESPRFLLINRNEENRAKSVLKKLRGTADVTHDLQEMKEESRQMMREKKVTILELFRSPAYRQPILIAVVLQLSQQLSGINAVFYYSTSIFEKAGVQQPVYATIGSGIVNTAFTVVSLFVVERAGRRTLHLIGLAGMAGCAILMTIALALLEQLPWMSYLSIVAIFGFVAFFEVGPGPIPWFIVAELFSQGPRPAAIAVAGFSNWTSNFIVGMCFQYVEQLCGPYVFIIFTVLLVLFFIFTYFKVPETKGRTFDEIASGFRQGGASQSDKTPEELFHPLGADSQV

Experiments:
[1] = molecular target: TXNIP ARR-VN (amino-terminal ARR only mutant, BiFC fusion) (UniProt Q9H3M7); assay: split reporter; BiFC; HeLa cells co-expressing VN and VC fusions, green fluorescent signal by confocal microscopy, cells fixed with 4% PFA
[2] = molecular target: TXNIP LL2A-VN (di-leucine motif replaced with alanine, BiFC fusion) (UniProt Q9H3M7); assay: as above

## GLUT1-VC (BiFC fusion) (from UniProt P11166 1-492)
[1]
  binding: binds
[2]
  binding: binds

Results are given in words; binding and its absence hold for the method and conditions named. Binding seen in cells or lysates may run through a third protein. Binding can be weak; no strength is given.
